Laboratory results as given in patent US20250027085A1, “COMPOSITIONS AND METHODS FOR TREATING ALZHEIMER'S DISEASE UTILIZING A TRANSCRIPTIONAL MASTER REGULATOR OF THE RETROMER COMPLEX” (THE TRUSTEES OF COLUMBIA UNIVERSITY IN THE CITY OF NEW YORK, priority 2022, published 2025).
These are yes or no findings as the source states them, for the method shown. In cells and extracts the contact can be indirect. Some results given as binding are weak or reduced against the parent protein; the word gives no strength. For part of these data: Tags and fused reporters may be left off the sequences shown.

Amino acid sequences for entries named in this document (tags omitted).
UniProt P18848: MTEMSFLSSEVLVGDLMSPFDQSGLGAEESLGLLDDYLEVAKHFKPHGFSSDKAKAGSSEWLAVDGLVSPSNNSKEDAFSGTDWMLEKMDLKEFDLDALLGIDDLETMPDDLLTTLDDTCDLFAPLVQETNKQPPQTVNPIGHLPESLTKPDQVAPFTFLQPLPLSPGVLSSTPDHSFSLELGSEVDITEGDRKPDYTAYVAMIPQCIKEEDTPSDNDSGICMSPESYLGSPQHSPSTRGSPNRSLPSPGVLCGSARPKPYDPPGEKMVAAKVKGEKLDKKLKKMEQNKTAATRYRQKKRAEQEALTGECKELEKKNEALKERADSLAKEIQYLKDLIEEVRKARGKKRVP

How the values were obtained:
[1] = biological target: FLAG-tagged H. sapiens ATF4 (H. sapiens) (UniProt P18848); experiment: co-IP (anti-ATF4 IP, anti-GFP blot) of in vitro translated proteins, rabbit reticulocyte lysate
[2] = biological target: FLAG-tagged H. sapiens ATF4 (H. sapiens) (UniProt P18848); experiment: co-IP, in vitro translated and HEK293-overexpressed proteins
[3] = biological target: FLAG-tagged H. sapiens ATF4 (H. sapiens) (UniProt P18848); experiment: co-IP in HEK293 cells
[4] = biological target: FLAG-tagged H. sapiens ATF4 (H. sapiens) (UniProt P18848); experiment: co-IP of in vitro translated proteins, rabbit reticulocyte lysate
[5] = biological target: FLAG-tagged H. sapiens ATF4 (H. sapiens) (UniProt P18848); experiment: co-IP of in vitro translated proteins
[6] = biological target: FLAG-tagged H. sapiens ATF4 (H. sapiens) (UniProt P18848); experiment: co-IP, in vitro translated or overexpressed tagged proteins
[7] = biological target: FLAG-tagged H. sapiens ATF4 (H. sapiens) (UniProt P18848); experiment: co-IP in HEK293 cells (overexpression model)
[8] = biological target: T1, endogenous rat ATF4 (hippocampal/cortical neurons) (rat) (UniProt Q9ES19); experiment: proximity ligation assay, axons, ciliobrevin A
T1 sequence (looked up): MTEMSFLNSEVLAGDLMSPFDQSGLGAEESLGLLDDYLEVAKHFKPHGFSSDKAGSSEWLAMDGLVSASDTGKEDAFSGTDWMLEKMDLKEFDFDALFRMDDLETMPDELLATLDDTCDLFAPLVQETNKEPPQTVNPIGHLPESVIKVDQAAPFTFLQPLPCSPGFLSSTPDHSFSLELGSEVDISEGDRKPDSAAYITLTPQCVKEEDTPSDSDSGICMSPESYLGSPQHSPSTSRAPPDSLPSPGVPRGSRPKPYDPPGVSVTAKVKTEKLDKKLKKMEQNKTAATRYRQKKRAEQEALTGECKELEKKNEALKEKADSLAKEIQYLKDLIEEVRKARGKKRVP

[9] = biological target: T1, endogenous rat ATF4 (hippocampal/cortical neurons) (rat); experiment: co-IP (anti-CREB3L2 IP, ATF4 blot), rat neurite lysates
[10] = biological target: T1, endogenous rat ATF4 (hippocampal/cortical neurons) (rat); experiment: proximity ligation assay, axons, Aβ1-42 plus nelfinavir
[11] = biological target: T1, endogenous rat ATF4 (hippocampal/cortical neurons) (rat); experiment: proximity ligation assay, dissociated rat hippocampal neurons
[12] = biological target: T1, endogenous rat ATF4 (hippocampal/cortical neurons) (rat); experiment: co-IP, rat neurite lysates
[13] = biological target: T1, endogenous rat ATF4 (hippocampal/cortical neurons) (rat); experiment: co-IP (anti-CREB3L2 IP, ATF4 blot), rat neuritic extracts
[14] = biological target: T1, endogenous rat ATF4 (hippocampal/cortical neurons) (rat); experiment: proximity ligation assay, axons of rat hippocampal neurons
[15] = biological target: T1, endogenous rat ATF4 (hippocampal/cortical neurons) (rat); experiment: proximity ligation assay, axons, Aβ42 plus nelfinavir
[16] = biological target: T1, endogenous rat ATF4 (hippocampal/cortical neurons) (rat); experiment: proximity ligation assay, axons, emetine
[17] = biological target: T1, endogenous rat ATF4 (hippocampal/cortical neurons) (rat); experiment: co-IP, rat neuritic extracts
[18] = biological target: T1, endogenous rat ATF4 (hippocampal/cortical neurons) (rat); experiment: proximity ligation assay, axons, nelfinavir
[19] = biological target: T1, endogenous rat ATF4 (hippocampal/cortical neurons) (rat); experiment: proximity ligation assay, axons, with or without emetine
[20] = biological target: T1, endogenous rat ATF4 (hippocampal/cortical neurons) (rat); experiment: proximity ligation assay, axons of rat hippocampal neurons in microfluidic chambers
[21] = biological target: T1, endogenous rat ATF4 (hippocampal/cortical neurons) (rat); experiment: proximity ligation assay, rat hippocampal neurons treated with α-synuclein pre-formed fibrils
[22] = biological target: T1, endogenous rat ATF4 (hippocampal/cortical neurons) (rat); experiment: proximity ligation assay, rat hippocampal neurons
[23] = biological target: endogenous human ATF4 (post-mortem brain) (human) (UniProt P18848); experiment: proximity ligation assay, human substantia nigra sections
[24] = biological target: endogenous human ATF4 (post-mortem brain) (human) (UniProt P18848); experiment: proximity ligation assay, human AD prefrontal cortex sections, neurofilament co-stain
[25] = biological target: endogenous human ATF4 (post-mortem brain) (human) (UniProt P18848); experiment: proximity ligation assay, human AD prefrontal cortex sections
[26] = biological target: endogenous human ATF4 (post-mortem brain) (human) (UniProt P18848); experiment: proximity ligation assay, human prefrontal cortex sections
[27] = biological target: endogenous human ATF4 (post-mortem brain) (human) (UniProt P18848); experiment: co-IP (anti-ATF4 IP, CREB3L2 blot), human prefrontal cortex
[28] = biological target: endogenous human ATF4 (post-mortem brain) (human) (UniProt P18848); experiment: co-IP (anti-CREB3L2 IP, ATF4 blot), human prefrontal cortex
[29] = biological target: T2, endogenous mouse ATF4 (5xFAD / wild-type hippocampus) (mouse) (UniProt Q06507); experiment: proximity ligation assay, mouse brain sections
T2 sequence (looked up): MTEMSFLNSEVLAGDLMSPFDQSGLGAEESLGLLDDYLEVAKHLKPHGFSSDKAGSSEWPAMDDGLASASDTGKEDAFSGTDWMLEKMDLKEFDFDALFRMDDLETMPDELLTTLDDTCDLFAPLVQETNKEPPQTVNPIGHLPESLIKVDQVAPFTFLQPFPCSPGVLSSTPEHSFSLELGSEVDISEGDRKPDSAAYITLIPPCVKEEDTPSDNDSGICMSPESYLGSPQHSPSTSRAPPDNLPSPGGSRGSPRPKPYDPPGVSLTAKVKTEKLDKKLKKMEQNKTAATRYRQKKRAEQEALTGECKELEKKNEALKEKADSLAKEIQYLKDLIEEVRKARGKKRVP

[30] = biological target: T2, endogenous mouse ATF4 (5xFAD / wild-type hippocampus) (mouse); experiment: proximity ligation assay, mouse brain sections (5xFAD against age-matched controls)

Measured: binding

B1: GFP-tagged H. sapiens CREB3L2, cleaved (activated) form (protein, UniProt Q70SY1 1-384, looked up, not shown: large carriers)
chain: MEVLESGEQGVLQWDRKLSELSEPGDGEALMYHTHFSELLDEFSQNVLGQLLNDPFLSEKSVSMEVEPSPTSPAPLIQAEHSYSLCEEPRAQSPFTHITTSDSFNDDEVESEKWYLSTDFPSTSIKTEPVTDEPPPGLVPSVTLTITAISTPLEKEEPPLEMNTGVDSSCQTIIPKIKLEPHEVDQFLNFSPKEAPVDHLHLPPTPPSSHGSDSEGSLSPNPRLHPFSLPQTHSPSRAAPRAPSALSSSPLLTAPHKLQGSGPLVLTEEEKRTLIAEGYPIPTKLPLSKSEEKALKKIRRKIKNKISAQESRRKKKEYMDSLEKKVESCSTENLELRKKVEVLENTNRTLLQQLQKLQTLVMGKVSRTCKLAGTQTGTCLMVVV
binds: [1] | [2] | [3] | [4] | [5] | [6] | [7]

B2: endogenous rat CREB3L2 (hippocampal/cortical neurons) (protein, UniProt Q6QDP7 1-521, looked up)
chain: MEVLESGEQSVLQWDRKLSELSEPGETEALMYHTHFSELLDEFSQNVLGQLLNDPFLSEKSVSMEVEPSPTSPAPLIQAEHSYSLSEEPRAQSPFTHVAASDGFNDEEVESEKWYLSTEFPSATIKTEPITEEQPPGLVPSVTLTITAISTPFEKEESPLDMSAGGDSSCQTLIPKIKLEPHEVDQFLNFSPKEASVDQLHLPPTPPSSHSSDSEGSLSPNPRLHPFSLSQAHSPGRAMPRGPSALSTSPLLTAPHKLQGSGPLVLTEEEKRTLIAEGYPIPTKLPLTKSEEKALKKIRRKIKNKISAQESRRKKKEYMDSLEKKVESCSTENLELRKKVEVLENTNRTLLQQLQKLQTLVMGKVSRTCKLAGTQTGTCLMVVVLCFAVAFGSLFQGYGLYPSATKMALPSQHPLSEPYTASVVRSRNLLIYEEHSSLEESSSPASAGELGGWDRGSSLLRASSGLEALPEVDLPHFIISKETSLEKSVLLELQQHLVSSKLEGNETLKVVELERRVNATF
binds: [8] | [9] | [10] | [11] | [12] | [13] | [14] | [15] | [16] | [17] | [18] | [19] | [20] | [21] | [22]

B3: endogenous human CREB3L2 (post-mortem brain) (protein, UniProt Q70SY1 1-520, looked up)
chain: MEVLESGEQGVLQWDRKLSELSEPGDGEALMYHTHFSELLDEFSQNVLGQLLNDPFLSEKSVSMEVEPSPTSPAPLIQAEHSYSLCEEPRAQSPFTHITTSDSFNDDEVESEKWYLSTDFPSTSIKTEPVTDEPPPGLVPSVTLTITAISTPLEKEEPPLEMNTGVDSSCQTIIPKIKLEPHEVDQFLNFSPKEAPVDHLHLPPTPPSSHGSDSEGSLSPNPRLHPFSLPQTHSPSRAAPRAPSALSSSPLLTAPHKLQGSGPLVLTEEEKRTLIAEGYPIPTKLPLSKSEEKALKKIRRKIKNKISAQESRRKKKEYMDSLEKKVESCSTENLELRKKVEVLENTNRTLLQQLQKLQTLVMGKVSRTCKLAGTQTGTCLMVVVLCFAVAFGSFFQGYGPYPSATKMALPSQHSLQEPYTASVVRSRNLLIYEEHSPPEESSSPGSAGELGGWDRGSSLLRVSGLESRPDVDLPHFIISNETSLEKSVLLELQQHLVSAKLEGNETLKVVELDRRVNTTF
binds: [23] | [24] | [25] | [26] | [27] | [28]

B4: endogenous mouse CREB3L2 (5xFAD / wild-type hippocampus) (protein, UniProt Q8BH52 1-521, looked up)
chain: MEVLESGEQSVLQWDRKLSELSEPGETEALMYHTHFSELLDEFSQNVLGQLLSDPFLSEKSESMEVEPSPTSPAPLIQAEHSYSLSEEPRTQSPFTHAATSDSFNDEEVESEKWYLSTEFPSATIKTEPITEEQPPGLVPSVTLTITAISTPFEKEESPLDMNAGGDSSCQTLIPKIKLEPHEVDQFLNFSPKEASVDQLHLPPTPPSSHSSDSEGSLSPNPRLHPFSLSQAHSPARAMPRGPSALSTSPLLTAPHKLQGSGPLVLTEEEKRTLVAEGYPIPTKLPLTKSEEKALKKIRRKIKNKISAQESRRKKKEYMDSLEKKVESCSTENLELRKKVEVLENTNRTLLQQLQKLQTLVMGKVSRTCKLAGTQTGTCLMVVVLCFAVAFGSFFQGYGPYPSATKMALPSQHPLSEPYTASVVRSRNLLIYEEHAPLEESSSPASAGELGGWDRGSSLLRASSGLEALPEVDLPHFLISNETSLEKSVLLELQQHLVSSKLEGNETLKVVELERRVNATF
binds: [29] | [30]
